{"sequences": {"note": "By UniProt entry, the sequences of proteins in these tests, tags left out. Residues count along the entry.", "UniProt P84903, residues 23-685": "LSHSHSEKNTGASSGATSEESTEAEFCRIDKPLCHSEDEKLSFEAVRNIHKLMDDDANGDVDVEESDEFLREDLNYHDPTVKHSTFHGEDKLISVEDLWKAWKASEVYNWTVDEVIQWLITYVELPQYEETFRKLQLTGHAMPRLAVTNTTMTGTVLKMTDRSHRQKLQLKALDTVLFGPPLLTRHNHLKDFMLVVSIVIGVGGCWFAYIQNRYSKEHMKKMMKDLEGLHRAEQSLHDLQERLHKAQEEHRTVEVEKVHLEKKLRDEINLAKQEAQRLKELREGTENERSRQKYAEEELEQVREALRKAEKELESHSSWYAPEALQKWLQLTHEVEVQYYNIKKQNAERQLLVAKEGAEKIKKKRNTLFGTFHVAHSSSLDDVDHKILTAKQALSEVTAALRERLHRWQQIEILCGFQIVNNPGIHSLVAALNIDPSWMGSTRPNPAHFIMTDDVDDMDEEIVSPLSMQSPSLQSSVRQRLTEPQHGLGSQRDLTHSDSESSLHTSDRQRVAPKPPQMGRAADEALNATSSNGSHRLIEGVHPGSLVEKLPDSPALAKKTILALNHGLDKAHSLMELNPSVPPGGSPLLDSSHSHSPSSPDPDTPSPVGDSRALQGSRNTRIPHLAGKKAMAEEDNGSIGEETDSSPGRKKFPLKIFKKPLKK", "UniProt Q5M848": "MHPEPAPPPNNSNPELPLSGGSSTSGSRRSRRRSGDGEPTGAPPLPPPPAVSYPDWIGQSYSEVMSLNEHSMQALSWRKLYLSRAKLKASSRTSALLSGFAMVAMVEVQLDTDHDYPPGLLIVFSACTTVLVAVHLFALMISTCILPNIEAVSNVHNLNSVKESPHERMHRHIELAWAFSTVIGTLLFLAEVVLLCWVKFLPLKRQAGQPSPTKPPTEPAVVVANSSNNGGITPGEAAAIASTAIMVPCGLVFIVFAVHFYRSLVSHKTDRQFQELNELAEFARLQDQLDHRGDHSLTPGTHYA"}, "source": "paper doi:10.1101/842476", "key": {"[1]": {"target": "STIM1 (rat (endogenous in DRG neurons)) (UniProt P84903)", "assay": "co-IP"}, "[2]": {"target": "STIM1 (rat (endogenous in DRG neurons)) (UniProt P84903)", "assay": "proximity ligation"}, "[3]": {"target": "Orai1 (rat (endogenous in DRG neurons)) (UniProt Q5M848)", "assay": "proximity ligation"}}, "note": "No constants are given. Whether binding was seen depends on the method and setting. In cells and extracts the contact can be indirect. Some results given as binding are weak or reduced against the parent protein; the word gives no strength."}
{"binder": "Junctophilin-4 (protein, UniProt Q69FB3 1-630) MHVPLGRKFDFDDGGCYVGGWEAGRAHGYGVCTGPGAQGEYSGCWAHGFESLGVFTGPGGHSYQGHWQQGKREGLGVERKSRWTYRGEWLGGLKGRSGVWESVSGLRYAGLWKDGFQDGYGTETYSDGGTYQGQWQAGKRHGYGVRQSVPYHQAALLRSPRRTSLDSGHSDPPTPPPPLPLPGDEGGSPASGSRGGFVLAGPGDADGASSRKRTPAAGGFFRRSLLLSGLRAGGRRSSLGSKRGSLRSEVSSEVGSTGPPGSEASGPPIPAPPALIEGSATEVYAGEWRADRRSGYGVSQRSNGLRYEGEWLGNRRHGYGRTTRPDGSREEGKYKRNRLVHGGRVRSLLPLALRRGKVKEKVDRAVEGARRAVSAARQRQEIAAARAADALLKAVAASSVAEKAVEAARMAKLIAQDLQPMLEAPGRRPRQDSGGSDTEPLDEDSPGVYENGLTPSEGSPELPSSPASSHQPWRAPPCRSPLPPGGNWGPFSSPKAWPEEWGGPGEQAEELAGYEAEDEAGMQGPGPRDGSPLLGGCSDSSGSLREEEGEDEESLPQLRAPGGSESEPVTTPVLRGLSSRGPDAGCLTEEFEEPAATERPAQPGAANPLVVGAVALLDLSLAFLFSQLLT", "values": [{"measurement": "binding", "setting": "[1]", "value": "binds weakly"}, {"measurement": "binding", "setting": "[2]", "value": "binds"}, {"measurement": "binding", "setting": "[3]", "value": "binds"}]}
